According to paper PMC9410877:
Results are given in words; binding and its absence hold for the method and conditions named. In cells and extracts the contact can be indirect. Here binding means that the protein was enriched with, or labelled near, the bait; the list need not be complete.

Sequences of proteins named here, by UniProt entry; tags and fusion partners are left off.
UniProt Q3URK3: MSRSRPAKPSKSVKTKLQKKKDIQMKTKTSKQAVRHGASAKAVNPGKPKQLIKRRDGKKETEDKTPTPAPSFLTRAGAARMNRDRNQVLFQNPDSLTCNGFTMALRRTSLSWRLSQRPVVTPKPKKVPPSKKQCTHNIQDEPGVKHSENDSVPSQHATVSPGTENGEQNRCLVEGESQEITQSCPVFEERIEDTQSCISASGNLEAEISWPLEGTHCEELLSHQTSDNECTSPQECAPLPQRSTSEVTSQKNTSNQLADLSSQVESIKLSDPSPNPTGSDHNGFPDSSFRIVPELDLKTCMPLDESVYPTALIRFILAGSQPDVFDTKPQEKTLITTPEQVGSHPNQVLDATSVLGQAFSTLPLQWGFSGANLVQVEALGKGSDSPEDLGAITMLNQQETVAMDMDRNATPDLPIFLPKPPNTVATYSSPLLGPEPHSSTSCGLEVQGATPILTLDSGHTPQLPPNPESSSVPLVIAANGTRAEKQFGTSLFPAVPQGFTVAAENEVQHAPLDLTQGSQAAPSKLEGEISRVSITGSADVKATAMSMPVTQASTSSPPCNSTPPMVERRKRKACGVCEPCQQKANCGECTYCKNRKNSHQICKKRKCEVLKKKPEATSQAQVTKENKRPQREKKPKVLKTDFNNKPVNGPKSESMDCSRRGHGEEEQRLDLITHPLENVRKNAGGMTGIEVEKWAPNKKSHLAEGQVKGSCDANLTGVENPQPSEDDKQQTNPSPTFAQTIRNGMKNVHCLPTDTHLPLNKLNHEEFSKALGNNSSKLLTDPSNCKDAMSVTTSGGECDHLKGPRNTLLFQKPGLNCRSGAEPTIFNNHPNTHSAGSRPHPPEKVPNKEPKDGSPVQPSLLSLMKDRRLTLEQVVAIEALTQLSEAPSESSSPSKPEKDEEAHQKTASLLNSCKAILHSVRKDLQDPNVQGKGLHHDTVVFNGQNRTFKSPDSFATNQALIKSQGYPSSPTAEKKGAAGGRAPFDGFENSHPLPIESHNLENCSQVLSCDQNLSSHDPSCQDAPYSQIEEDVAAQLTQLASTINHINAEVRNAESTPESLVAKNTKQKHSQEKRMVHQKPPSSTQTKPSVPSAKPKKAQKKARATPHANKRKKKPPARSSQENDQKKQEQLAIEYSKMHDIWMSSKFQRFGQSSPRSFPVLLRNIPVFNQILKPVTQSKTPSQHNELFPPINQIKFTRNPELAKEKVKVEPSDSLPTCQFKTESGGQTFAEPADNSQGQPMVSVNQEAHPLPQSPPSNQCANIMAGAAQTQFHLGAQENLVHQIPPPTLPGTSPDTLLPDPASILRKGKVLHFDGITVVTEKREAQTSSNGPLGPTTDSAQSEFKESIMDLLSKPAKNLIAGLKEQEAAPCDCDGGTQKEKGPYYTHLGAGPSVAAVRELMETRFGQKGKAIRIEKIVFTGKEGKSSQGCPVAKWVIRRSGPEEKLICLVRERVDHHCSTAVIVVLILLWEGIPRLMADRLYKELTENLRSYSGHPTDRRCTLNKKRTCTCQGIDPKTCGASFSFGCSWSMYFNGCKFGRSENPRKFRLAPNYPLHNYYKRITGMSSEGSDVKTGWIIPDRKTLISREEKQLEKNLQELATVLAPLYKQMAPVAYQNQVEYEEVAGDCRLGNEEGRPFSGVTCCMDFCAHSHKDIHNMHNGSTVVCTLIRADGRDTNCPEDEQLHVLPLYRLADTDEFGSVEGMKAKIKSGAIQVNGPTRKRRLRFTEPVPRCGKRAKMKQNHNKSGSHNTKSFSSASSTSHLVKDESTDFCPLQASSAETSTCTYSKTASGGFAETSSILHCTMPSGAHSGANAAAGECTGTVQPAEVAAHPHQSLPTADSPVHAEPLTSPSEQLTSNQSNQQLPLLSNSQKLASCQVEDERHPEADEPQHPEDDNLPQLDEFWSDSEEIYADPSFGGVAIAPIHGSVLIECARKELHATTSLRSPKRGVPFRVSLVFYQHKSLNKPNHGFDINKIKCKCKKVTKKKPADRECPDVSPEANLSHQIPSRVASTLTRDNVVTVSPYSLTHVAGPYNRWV

B1: MORC3 (protein, UniProt F7BJB9 1-942)
chain: MAAQPPTGIRLSALCPKFLHTNSTSHTWPFSAVAELIDNAYDPDVNAKQIWIDKTVISDHICLTFTDNGNGMTADKLHKMLSFGFSDKVTMNGHVPVGLYGNGFKSGSMRLGKDAMVFTKNGETMSVGFLSQTYLEVIKAEHVVVPIVTFNKHRQMINLTESKASLAAILEHSLFSTEQKLLAELNAIMGKKGTRIIIWNLRSYKNATEFDFEKDKYDIRIPEDLDETAGRKGYKKQERMDQIAPESDYSLRAYCSILYLKPRMQIIIRGQKVKTQLVSKSLAYIERDVYRPKFLTRTVRITFGFNCRNKDHYGIMMYHKNRLIKAYEKVGCQLKANNMGVGVVGIIECNFLKPTHNKQDFDYTNEYRLTILALGEKLNDYWNEMKVKKNAEYPVNLPVEDIQKRPDQTWVQCDACLKWRKLPDGIDQLPEKWYCSNNPDPQFRNCEVPEEPEDEDLVHPTYEKTYKKTSKERFRIRQPEILPRILPQINPELLYQTSVSSQSFSPVKESVPRPHLSEVTSPFAARIINLNLASPASEPENSSMKRKLGVHSSILNAKTRRLSNPPVENSSYKNDDDEDVIILEENSTPKPAVDLEVKSDIEVKSEQSHTEQSGIHVDLVSSPKPCVQASSTSTSTSRSDPGITVSTQTDAPGLTVKKEESMEEDMGVRNGTATLSCVGTEAKVQETSAESVDATSHQLQELRSELLVVTQERDDYKRQCQMFTDQIQVLQQRLLEMNDKCVKKEKCHQSTETDAVFLLDSVNGQAESLDHLGSQYQQALQEIERLKRQCSALQQVKSECSQASCTESKSEVDEMAVQLDDVFRQLDKCTIERDQYKNEVQLLEIEKSHIHSQCEELQTEVEQLKSTGQQAAADGSTASNAEEPVSYVDGESLKLRSLRVNVGQLLAMIVPDLDLQQVNYDVDVVDEILGQVVEQMSEISST
B2: SMARCAD1 (protein, UniProt Q04692 1-1021)
chain: MNLFNLDRFRFEKRSKIEEAPEAAPQPSQARPSSPISLSAEEENAEGEGSRANTPDSDVTEKTEDSSVPEPPDNERKASLSCFQNQRAIQEYIDLSSDTEDVSPNCSSTVQEKKFSKDTVIIVSEPSEDEESHDLPSVTRRNDSSELEDLSELEDLKDAKLQTLKELFPQRSDSDLLKLIESTSTMDGAIAAALLMFGDAGGGPRKRKLSSSSEEDDVNDDQSVKQPRGDRGEESNESAEASSNWEKQESIVLKLQKEFPNFDKQELREVLKEHEWMYTEALESLKVFAEDQDVQCASQSEVTNGKEVARNQNYSKNATKIKMKQKISVKPQNGFNKKRKKNVFNPKKAVEDSEYDSGSDAGSSLDEDYSSCEEVMEDGYKGKILHFLQVSSIAELTLIPKCSQKKAQKITELRPFNNWEALFTKMSKINGLSEDLIWNCKTVIQERDVVIRLMNKCEDISNKLTKQVTMLTGNGGGWNREQPSLLNQSLSLKPYQKVGLNWLALVHKHGLNGILADEMGLGKTIQAIAFLAYLFQEGNKGPHLIVVPASTIDNWLREVNLWCPSLNVLCYYGSQEERKQIRFNIHNKYEDYNVIVTTYNCAISSSDDRSLFRRLKLNYAIFDEGHMLKNMGSIRYQHLMTINARNRLLLTGTPVQNNLLELMSLLNFVMPHMFSSSTSEIRRMFSSKTKPADEQSIYEKERIAHAKQIIKPFILRRVKEEVLKLLPPKKDRIELCAMSEKQEQLYSGLFNRLKKSINNLEKNTEMCNVMMQLRKMANHPLLHRQYYTPEKLKEMSQLMLKEPTHCEANPDLIFEDMEVMTDFELHVLCKQYQHINSYQLDMDLILDSGKFRALGCILSELKQKGDRVVLFSQFTMMLDILEVLLKHHQHRYLRLDGKTQISERIHLIDEFNTDMDIFVFLLSTKAGGLGINLTSANVVILHDIDCNPYNDKQAEDRCHRVGQTKEVLVIKLISQGTIEESMLKINQQKLKLEQDMTTVDEADEGSMPADIATLLKTSMGL

Target: TET1 (ten-eleven translocation 1) (mouse (endogenous in mESCs)) (UniProt Q3URK3)
Experiment: affinity purification with mass spectrometry; ChIP-MS of TET1: WT and Tet1 KO mESCs (Serum LIF), triplicates, crosslinked with 1% paraformaldehyde, chromatin sheared by sonication (no MNase), anti-TET1 antibody (09-872-I, Sigma-Aldrich) overnight at 4°C, protein A/G beads, two low salt (140 mM NaCl), one high salt (500 mM NaCl) and two TBS washes, on-bead trypsin digestion, LC-MS/MS, MaxLFQ; t-test, FDR 5%, log2 fold change cut-off 1

Row | Binder | binding
1 | B1 | binds
2 | B2 | binds
